Data published in paper PMC6018666.

Protein sequences, listed by entry. Tags and fused reporters are not part of them. Residues count along the entry.
UniProt P09651, 1-196: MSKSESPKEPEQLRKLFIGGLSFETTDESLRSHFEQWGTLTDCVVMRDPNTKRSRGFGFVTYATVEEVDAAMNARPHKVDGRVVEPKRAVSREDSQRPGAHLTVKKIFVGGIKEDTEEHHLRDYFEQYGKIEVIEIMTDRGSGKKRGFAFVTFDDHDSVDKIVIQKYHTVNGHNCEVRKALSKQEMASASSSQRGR
UniProt P09651, 1-196 E66C: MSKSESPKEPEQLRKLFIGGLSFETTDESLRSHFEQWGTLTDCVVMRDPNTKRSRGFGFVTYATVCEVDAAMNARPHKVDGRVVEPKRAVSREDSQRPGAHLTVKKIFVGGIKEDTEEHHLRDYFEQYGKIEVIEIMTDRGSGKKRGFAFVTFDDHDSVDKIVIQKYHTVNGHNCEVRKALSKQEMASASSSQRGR

Key:
UP1 (hnRNP A1 RRM1-RRM2) = UP1 (hnRNP A1 RRM1-RRM2) (UniProt P09651); test: SAXS; conditions: recombinant protein; residues 1-196; protein details: His tag removed by TEV
UP1 E66C spin-labeled = UP1 E66C spin-labeled (UniProt P09651); test: NMR PRE; conditions: recombinant protein; residues 1-196; protein details: spin label at C66, His tag removed by TEV

AGUAGAUUAGCA [12-mer]
binding result (UP1 (hnRNP A1 RRM1-RRM2)): binds | binding result (UP1 E66C spin-labeled): binds

For at least one entry, the source does not settle the construct or the ends of the probe. At least one verdict rests on a figure or table, not on a statement of the authors.
